The results in this text go back to the supplement of paper PMC12067093, “Discovery and optimisation of a covalent ligand for TRIM25 and its application to targeted protein ubiquitination” (Chemical Science, 2025).

The other results are listed elsewhere or left out.

Compound in this experiment: CC1Cc2ccccc2N1C(=O)C1CCCN(C1)C(=O)CCl (mixture of isomers) [TRIM25 ligand 11 (diastereomer mixture)]
Briefly: probe-labelled cysteine peptide fold change vs DMSO (competition) (log2 fold change); higher = less target engagement (more negative = stronger competition). Particulars: THP-1, incubation time: 4 h.
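Further: competitive chemoproteomic profiling in live THP-1 cells with an iodoacetamide desthiobiotin (IA-DTB) probe, comparing probe-labelled peptide intensities in compound-treated cells against DMSO-treated controls.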

With “ELP2_Q6IA86_769_KTDQVPEINDWTHCVETSQSQSHTLAIR (UniProt Q6IA86)”, the “probe-labelled cysteine peptide fold change” value is, setting by setting: (10 µM) 0.311; (50 µM) 0.0912.
The corresponding values for “EIF4G3_O43432_461_TCLSEDAK (UniProt O43432)” are -0.0503 and -0.229.
“EIF4G1_Q04637_821_CLMALK (UniProt Q04637)”: the “probe-labelled cysteine peptide fold change” value was determined as 0.0384 (10 µM) and 0.13 (50 µM).
For “EIF5_P55010_99_FVLCPECENPETDLHVNPK (UniProt P55010)”, in that order: -0.0189 and 0.0537.
The corresponding values for “ELP5_Q8TE02_61_SALCGEQVHILGCEVSEEEFR (UniProt Q8TE02)” are 0.0192 and 0.276.
The corresponding values for “EPRS_P07814_1148_LNQWCNVVR (UniProt P07814)” are 0.033 and 0.0217.
For “EIF4G1_Q04637_1487_ALMTAVCYSAIIFETPLR (UniProt Q04637)”, the “probe-labelled cysteine peptide fold change” value is 0.145 (10 µM) and 0.0271 (50 µM).
Take “EMG1_Q92979_171_NPVSDHFPVGCMK (UniProt Q92979)”: the “probe-labelled cysteine peptide fold change” value was 0.0789 (10 µM) and -0.0589 (50 µM).
In the case of “ELOB_Q15370_60_TLGECGFTSQTAR (UniProt Q15370)”, the “probe-labelled cysteine peptide fold change” value (10 µM) worked out at 0.0672 and the “probe-labelled cysteine peptide fold change” value (50 µM) is -0.0666.
The corresponding values for “ENOPH1_Q9UHY7_202_IADSIGCSTNNILFLTDVTR (UniProt Q9UHY7)” are 0.266 and 0.219.
For “EMILIN2_Q9BXX0_553_VQVVEDICLLNIQGKPHGMEGALPNREDR (UniProt Q9BXX0)”, in that order: -0.0207 and -0.0746.
Regarding “ELF2_Q15723_470_IITIPATQLAQCQLQTK (UniProt Q15723)”, the “probe-labelled cysteine peptide fold change” value was -0.0971 (10 µM) and -0.199 (50 µM).
“ELOF1_P60002_26+29_MTGTLETQFTCPFCNHEK (UniProt P60002)”: the “probe-labelled cysteine peptide fold change” value (10 µM) is -0.14 and the “probe-labelled cysteine peptide fold change” value (50 µM) is -0.278.
As for “EIF3M_Q7L2H7_134_VAASCGAIQYIPTELDQVRK (UniProt Q7L2H7)”, the “probe-labelled cysteine peptide fold change” value was 0.217 (10 µM) and 0.402 (50 µM).
Regarding “EIF3I_Q13347_57_LGTYMGHTGAVWCVDADWDTK (UniProt Q13347)”, the “probe-labelled cysteine peptide fold change” value (10 µM) is 0.0312 and the “probe-labelled cysteine peptide fold change” value (50 µM) was -0.0132.
For the target “EIF4A3_P38919_137_GLLALGDYMNVQCHACIGGTNVGEDIR (UniProt P38919)”, the “probe-labelled cysteine peptide fold change” value was -0.194 (10 µM) and -0.0413 (50 µM).
For “EPRS_P07814_744_ERPTPSLNNNCTTSEDSLVLYNR (UniProt P07814)”, in that order: 0.0165 and -0.00714.
For the target “EPM2A_B3EWF7_192_RRASRAFCPR (UniProt B3EWF7)”, the “probe-labelled cysteine peptide fold change” value was -0.0876 (10 µM) and 0.0336 (50 µM).
The corresponding values for “EP300_Q09472_388_SCQVAHCASSR (UniProt Q09472)” are 0.161 and 0.053.
The corresponding values for “EPHX2_P34913_522_GHIEDCGHWTQMDKPTEVNQILIK (UniProt P34913)” are -0.128 and -0.242.
For “EPHX2_P34913_232_VTGIQLLNTPAPLPTSCNPSDMSHGYVTVKPR (UniProt P34913)”, in that order: 0.149 and -0.204.
With “EIF3D_O15371_258_TQGNVFATDAILATLMSCTR (UniProt O15371)”, the “probe-labelled cysteine peptide fold change” value reads like this: (10 µM) 0.217; (50 µM) 0.233.
In the case of “EMC9_Q9Y3B6_177_AHQHLVDFDCHLDDIR (UniProt Q9Y3B6)”, the “probe-labelled cysteine peptide fold change” value reads like this: (10 µM) 0.069; (50 µM) -0.124.
Turning to “EIF5B_O60841_853_LAHCEELR (UniProt O60841)”, the “probe-labelled cysteine peptide fold change” value (10 µM) was -0.000337 and the “probe-labelled cysteine peptide fold change” value (50 µM) is -0.0257.
For “EML2_O95834_110_CLAIHPDMVTIATGQVAGTTK (UniProt O95834)”, in that order: 0.0152 and 0.0129.
As to “ELANE_P08246_208_QAGVCFGDSGSPLVCNGLIHGIASFVR (UniProt P08246)”, the “probe-labelled cysteine peptide fold change” value by setting is: (10 µM) 0.19; (50 µM) 0.103.
For “ELP4_Q96EB1_361_LNNLICDESDVK (UniProt Q96EB1)”, in that order: 0.196 and 0.0194.
In the case of “EPG5_Q9HCE0_318_QLLLAEAELLTLTSDCQNAK (UniProt Q9HCE0)”, the “probe-labelled cysteine peptide fold change” value reads like this: (10 µM) 0.102; (50 µM) 0.144.
As to “EMC10_Q5UCC4_49_EGEACGTVGLLLEHSFEIDDSANFR (UniProt Q5UCC4)”, the “probe-labelled cysteine peptide fold change” value was -0.235 (10 µM) and -0.0512 (50 µM).
The corresponding values for “EPC1_Q9H2F5_22_CEDLPDLHEYASINR (UniProt Q9H2F5)” are -0.132 and -0.266.
The corresponding values for “EPRS_P07814_623_VTWLAETTHALPIPVICVTYEHLITK (UniProt P07814)” are 0.125 and 0.261.
For “ELP2_Q6IA86_38_GLLAFGTSCSVVLYDPLK (UniProt Q6IA86)”, in that order: 0.157 and 0.159.
Turning to “EMB_Q6PCB8_180_NKPLISYVGDSTVLTCK (UniProt Q6PCB8)”, the “probe-labelled cysteine peptide fold change” value came to 0.0191 (10 µM) and 0.291 (50 µM).
For “EIF4G3_O43432_1534_MFFDCLYDEEVISEDAFYK (UniProt O43432)”, the “probe-labelled cysteine peptide fold change” value is, setting by setting: (10 µM) 0.017; (50 µM) 0.00303.
The corresponding values for “ELAC1_Q9H777_130_TMELSHTELVFHYVVHELVPTADQCPAEELK (UniProt Q9H777)” are 0.159 and 0.119.
